Earlier results in patent US20130281398A1, “TREATMENT OF DISEASES BY EPIGENETIC REGULATION” (RVX Therapeutics Inc., priority 2012, published 2013).

Test system: lipopolysaccharide-induced endotoxic shock and bacteria-induced sepsis
Conditions: Nicodeme et al. (2010); cited from earlier work

CCNC(=O)C[C@@H]1N=C(c2ccc(Cl)cc2)c2cc(OC)ccc2-n2c(C)nnc21 [I-BET]
protection against endotoxic shock and sepsis: confer protection
